PubChem BioAssay AID1159584 | Peter MacCallum Cancer Centre – 2016
In all, the deposit lists about 18,000 reagents; shown is a part drawn at random. Further read-outs or replicates are left out here. The record does not give: the amount of reagent, the time to read-out.

Purpose: 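Knock-downs that harm CDH1-null cells more than parental MCF10A cells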 (primary screen)
Cell system: human MCF10A breast epithelial cells, parental and CDH1-null
Reagent: siRNA against human genes
Measured: 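ATP luminescence (CellTiter-Glo) viability per line relative to mean mock wells over all plates, and the ratio of CDH1-null to parental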
Direction: CDH1-null / parental viability ratio: higher = CDH1-null cells survive relatively better than parental

Knock-down of DBR1 (debranching RNA lariats 1) gave: CDH1-null / parental viability ratio 1.14.
MCRIP1 (MAPK regulated corepressor interacting protein 1) gave CDH1-null / parental viability ratio 1.23.
With knock-down of FBXO44 (F-box protein 44) the results were CDH1-null / parental viability ratio 1.06.
Against CMSS1 (cms1 ribosomal small subunit homolog), the entry reads CDH1-null / parental viability ratio 0.97.
Depletion of TDP2 (tyrosyl-DNA phosphodiesterase 2) came out at: CDH1-null / parental viability ratio 1.08.
Silencing of SENP1 (SUMO specific peptidase 1) came out at: CDH1-null / parental viability ratio 1.23.
Depletion of PITX3 (paired like homeodomain 3) resulted in: CDH1-null / parental viability ratio 0.7.
With knock-down of MAMLD1 (mastermind like domain containing 1), the record shows CDH1-null / parental viability ratio 1.02.
After knock-down of FAM124B (family with sequence similarity 124 member B) the results were CDH1-null / parental viability ratio 0.97.
For LYG2 (lysozyme g2) the deposit lists CDH1-null / parental viability ratio 1.1.
With knock-down of PON1 (paraoxonase 1), the screen gave CDH1-null / parental viability ratio 1.17.
For TBC1D16 (TBC1 domain family member 16) the deposit lists CDH1-null / parental viability ratio 1.03.
For MBIP (MAP3K12 binding inhibitory protein 1) the deposit lists CDH1-null / parental viability ratio 1.62.
Knock-down of MEAF6 (MYST/Esa1 associated factor 6) resulted in: CDH1-null / parental viability ratio 1.44.
Against CBFB (core-binding factor subunit beta) the deposit lists CDH1-null / parental viability ratio 1.06.
GALNT12 (polypeptide N-acetylgalactosaminyltransferase 12) scored CDH1-null / parental viability ratio 1.03.
With knock-down of MIXL1 (Mix paired-like homeobox), the record shows CDH1-null / parental viability ratio 0.85.
FCRL6 (Fc receptor like 6) gave CDH1-null / parental viability ratio 0.9.
With knock-down of LRRC37B (leucine rich repeat containing 37B), the record shows CDH1-null / parental viability ratio 1.17.
OVGP1 (oviductal glycoprotein 1) scored CDH1-null / parental viability ratio 1.92.
For TNKS (tankyrase) the deposit lists CDH1-null / parental viability ratio 1.13.
ADH4 (alcohol dehydrogenase 4 (class II), pi polypeptide) gave CDH1-null / parental viability ratio 0.89.
For ADCYAP1R1 (ADCYAP receptor type I) the deposit lists CDH1-null / parental viability ratio 1.35.
Against OR52B2 (olfactory receptor family 52 subfamily B member 2), the entry reads CDH1-null / parental viability ratio 1.02.

Not a retest: an excerpt of the list.
OVGP1 (oviductal glycoprotein 1) | CDH1-null / parental viability ratio: 1.92
TNKS (tankyrase) | CDH1-null / parental viability ratio: 1.13
ADH4 (alcohol dehydrogenase 4 (class II), pi polypeptide) | CDH1-null / parental viability ratio: 0.89
